In publication PMC12487890 one finds binding data, which are given here for 2 substances.

By UniProt entry, the sequences of proteins in these tests, tags left out.
UniProt Q01628: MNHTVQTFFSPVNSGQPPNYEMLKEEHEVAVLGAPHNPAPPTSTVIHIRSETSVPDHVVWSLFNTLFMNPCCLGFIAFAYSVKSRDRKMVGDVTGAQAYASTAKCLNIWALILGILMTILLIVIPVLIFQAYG
UniProt P03407: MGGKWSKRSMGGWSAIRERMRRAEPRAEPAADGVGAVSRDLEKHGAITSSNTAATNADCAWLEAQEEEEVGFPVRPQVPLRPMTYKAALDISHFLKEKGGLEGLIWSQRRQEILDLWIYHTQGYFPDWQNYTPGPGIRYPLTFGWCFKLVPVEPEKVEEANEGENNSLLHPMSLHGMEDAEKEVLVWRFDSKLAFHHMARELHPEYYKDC

These are yes or no findings as the source states them, for the method shown. Binding seen in cells or lysates may run through a third protein. Some binding calls cover weakened binding; strength is not graded here.

Assay [1] deals with FLAG-tagged IFITM3 and Myc-tagged IFITM3 (two differently tagged copies) (human) (UniProt Q01628). Description: co-IP; anti-FLAG (M2) antibody added to 100 μg of whole-cell lysate of HEK293T cotransfected with IFITM3-FLAG and IFITM3-Myc, alone or with 97ZA Nef-HA; Dynabeads Protein G; immunoblot with anti-FLAG and anti-Myc. A general note: Immunoblotting shows a protein as a band on a membrane.

Another assay concerns the target SF2 Nef-HA (HIV-1) (UniProt P03407). Description: co-IP; anti-HA antibody added to 100 μg of whole-cell lysate of cotransfected HEK293T (20 mM Hepes, 150 mM NaCl, 1 mM EDTA, 1% Triton X-100), 1 hour at 4°C, Dynabeads Protein G, washed three times with lysis buffer; immunoblot with anti-HA and anti-IFITM3; Nef-HA is the bait.

As for “FLAG-tagged IFITM3 and Myc-tagged IFITM3 (two differently tagged copies) (from UniProt Q01628 1-133)”, the binding result in assay [1] was “binds”.
On to “interferon-induced transmembrane protein 3 (IFITM3), human, untagged (from UniProt Q01628 1-133)”, for which the binding result with SF2 Nef-HA (HIV-1) is recorded as “binds”.
